Article PMC6500973

Protein sequences, listed by entry. Tags and fused reporters are not part of them. Lines headed by an entry give the natural chain unless they say otherwise; changes in a name come on top.
UniProt P35637: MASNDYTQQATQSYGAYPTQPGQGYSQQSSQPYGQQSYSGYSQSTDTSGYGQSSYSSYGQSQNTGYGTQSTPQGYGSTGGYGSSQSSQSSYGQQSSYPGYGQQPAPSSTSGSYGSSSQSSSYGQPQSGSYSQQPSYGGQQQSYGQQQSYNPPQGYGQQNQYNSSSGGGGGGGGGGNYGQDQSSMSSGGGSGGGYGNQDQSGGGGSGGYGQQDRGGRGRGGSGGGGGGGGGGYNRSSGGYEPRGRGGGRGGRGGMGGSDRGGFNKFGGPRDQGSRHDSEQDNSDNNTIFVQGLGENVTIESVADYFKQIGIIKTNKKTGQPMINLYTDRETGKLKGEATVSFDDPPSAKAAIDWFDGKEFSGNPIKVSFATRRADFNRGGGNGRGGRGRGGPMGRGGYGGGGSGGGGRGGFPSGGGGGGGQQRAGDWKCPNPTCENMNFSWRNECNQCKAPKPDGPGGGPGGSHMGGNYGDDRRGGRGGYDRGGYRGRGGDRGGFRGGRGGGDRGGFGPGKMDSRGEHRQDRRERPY
UniProt Q01844: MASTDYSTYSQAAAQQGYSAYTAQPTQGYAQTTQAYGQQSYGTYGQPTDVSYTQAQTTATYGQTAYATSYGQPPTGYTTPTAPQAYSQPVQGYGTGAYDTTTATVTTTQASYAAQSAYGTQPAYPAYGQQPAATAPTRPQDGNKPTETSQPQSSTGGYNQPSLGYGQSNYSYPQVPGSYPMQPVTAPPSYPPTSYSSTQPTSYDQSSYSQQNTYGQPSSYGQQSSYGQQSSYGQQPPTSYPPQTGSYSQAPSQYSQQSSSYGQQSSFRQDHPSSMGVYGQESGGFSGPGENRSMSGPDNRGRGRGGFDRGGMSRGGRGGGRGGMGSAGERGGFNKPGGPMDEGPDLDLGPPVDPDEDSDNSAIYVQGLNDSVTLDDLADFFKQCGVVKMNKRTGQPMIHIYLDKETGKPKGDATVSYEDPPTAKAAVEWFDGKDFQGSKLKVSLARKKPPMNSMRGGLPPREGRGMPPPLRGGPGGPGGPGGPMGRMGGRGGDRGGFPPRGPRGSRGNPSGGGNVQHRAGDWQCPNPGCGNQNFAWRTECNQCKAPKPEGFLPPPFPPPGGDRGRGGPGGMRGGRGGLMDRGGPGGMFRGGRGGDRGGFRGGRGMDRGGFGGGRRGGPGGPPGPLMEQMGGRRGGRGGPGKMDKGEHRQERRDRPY
UniProt Q96GM5: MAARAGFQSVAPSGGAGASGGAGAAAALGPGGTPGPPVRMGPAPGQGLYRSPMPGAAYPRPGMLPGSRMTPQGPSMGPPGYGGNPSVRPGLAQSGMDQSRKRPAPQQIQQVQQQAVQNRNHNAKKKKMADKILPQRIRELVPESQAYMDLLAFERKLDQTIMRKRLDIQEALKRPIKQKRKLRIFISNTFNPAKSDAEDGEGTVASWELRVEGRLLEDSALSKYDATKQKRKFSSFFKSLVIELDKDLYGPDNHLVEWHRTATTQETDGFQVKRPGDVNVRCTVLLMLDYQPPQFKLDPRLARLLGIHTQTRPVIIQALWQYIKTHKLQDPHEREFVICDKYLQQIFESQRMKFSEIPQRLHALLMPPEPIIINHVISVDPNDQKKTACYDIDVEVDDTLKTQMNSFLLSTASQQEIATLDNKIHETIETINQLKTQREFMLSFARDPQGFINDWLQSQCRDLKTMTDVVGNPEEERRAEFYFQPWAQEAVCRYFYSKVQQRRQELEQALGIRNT
UniProt Q12824: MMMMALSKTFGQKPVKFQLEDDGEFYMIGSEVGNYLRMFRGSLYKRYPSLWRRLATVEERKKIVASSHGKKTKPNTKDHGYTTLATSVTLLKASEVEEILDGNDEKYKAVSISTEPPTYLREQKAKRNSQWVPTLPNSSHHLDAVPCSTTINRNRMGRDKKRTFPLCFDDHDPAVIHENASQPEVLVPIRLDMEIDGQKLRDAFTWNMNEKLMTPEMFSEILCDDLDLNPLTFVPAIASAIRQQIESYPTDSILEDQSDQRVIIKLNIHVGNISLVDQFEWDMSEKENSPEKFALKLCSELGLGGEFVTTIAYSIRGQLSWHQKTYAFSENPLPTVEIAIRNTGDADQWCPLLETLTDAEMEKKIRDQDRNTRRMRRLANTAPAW
UniProt Q15532: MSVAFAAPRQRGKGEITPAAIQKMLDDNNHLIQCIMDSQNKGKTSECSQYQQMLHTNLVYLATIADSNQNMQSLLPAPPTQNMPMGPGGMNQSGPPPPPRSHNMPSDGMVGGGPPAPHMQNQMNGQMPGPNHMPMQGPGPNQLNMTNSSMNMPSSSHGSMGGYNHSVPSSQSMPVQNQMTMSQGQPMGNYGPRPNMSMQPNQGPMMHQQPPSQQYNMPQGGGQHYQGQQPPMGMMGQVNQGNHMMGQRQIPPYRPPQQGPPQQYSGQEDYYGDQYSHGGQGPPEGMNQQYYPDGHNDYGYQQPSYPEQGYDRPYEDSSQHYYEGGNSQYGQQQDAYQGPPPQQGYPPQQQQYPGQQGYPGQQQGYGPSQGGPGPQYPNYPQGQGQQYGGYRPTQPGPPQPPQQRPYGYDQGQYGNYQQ
UniProt Q8TAQ2: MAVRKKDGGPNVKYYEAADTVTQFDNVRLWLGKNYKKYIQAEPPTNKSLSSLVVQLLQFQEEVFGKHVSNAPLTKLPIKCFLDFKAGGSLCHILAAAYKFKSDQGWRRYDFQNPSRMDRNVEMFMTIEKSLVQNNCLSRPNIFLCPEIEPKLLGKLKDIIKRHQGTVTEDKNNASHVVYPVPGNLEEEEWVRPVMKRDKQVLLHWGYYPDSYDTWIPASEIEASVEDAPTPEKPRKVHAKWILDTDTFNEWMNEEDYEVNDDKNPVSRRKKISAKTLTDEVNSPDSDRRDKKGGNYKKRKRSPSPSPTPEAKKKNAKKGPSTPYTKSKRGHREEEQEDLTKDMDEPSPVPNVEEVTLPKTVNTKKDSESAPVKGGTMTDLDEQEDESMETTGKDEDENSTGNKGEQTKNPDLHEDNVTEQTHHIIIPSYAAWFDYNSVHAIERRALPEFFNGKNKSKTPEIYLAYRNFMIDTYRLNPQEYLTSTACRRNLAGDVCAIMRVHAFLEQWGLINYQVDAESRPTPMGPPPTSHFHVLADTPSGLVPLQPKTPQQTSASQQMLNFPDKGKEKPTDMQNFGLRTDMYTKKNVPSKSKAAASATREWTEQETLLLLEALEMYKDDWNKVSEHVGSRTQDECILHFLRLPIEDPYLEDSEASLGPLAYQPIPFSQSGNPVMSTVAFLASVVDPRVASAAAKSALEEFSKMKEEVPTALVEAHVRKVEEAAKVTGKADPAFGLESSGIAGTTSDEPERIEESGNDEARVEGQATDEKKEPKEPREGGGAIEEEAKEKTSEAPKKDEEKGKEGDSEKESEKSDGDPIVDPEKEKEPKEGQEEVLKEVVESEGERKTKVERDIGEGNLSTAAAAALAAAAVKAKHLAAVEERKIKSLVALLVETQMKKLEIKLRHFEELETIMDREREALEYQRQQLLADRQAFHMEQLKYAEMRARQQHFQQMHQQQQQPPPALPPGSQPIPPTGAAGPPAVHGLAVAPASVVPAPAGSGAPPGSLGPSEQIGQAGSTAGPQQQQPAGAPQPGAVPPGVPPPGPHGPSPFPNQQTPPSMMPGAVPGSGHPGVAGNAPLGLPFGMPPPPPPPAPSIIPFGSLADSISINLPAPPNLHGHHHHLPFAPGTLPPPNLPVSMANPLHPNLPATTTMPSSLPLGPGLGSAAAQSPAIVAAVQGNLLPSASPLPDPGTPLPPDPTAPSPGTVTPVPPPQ
UniProt Q92922: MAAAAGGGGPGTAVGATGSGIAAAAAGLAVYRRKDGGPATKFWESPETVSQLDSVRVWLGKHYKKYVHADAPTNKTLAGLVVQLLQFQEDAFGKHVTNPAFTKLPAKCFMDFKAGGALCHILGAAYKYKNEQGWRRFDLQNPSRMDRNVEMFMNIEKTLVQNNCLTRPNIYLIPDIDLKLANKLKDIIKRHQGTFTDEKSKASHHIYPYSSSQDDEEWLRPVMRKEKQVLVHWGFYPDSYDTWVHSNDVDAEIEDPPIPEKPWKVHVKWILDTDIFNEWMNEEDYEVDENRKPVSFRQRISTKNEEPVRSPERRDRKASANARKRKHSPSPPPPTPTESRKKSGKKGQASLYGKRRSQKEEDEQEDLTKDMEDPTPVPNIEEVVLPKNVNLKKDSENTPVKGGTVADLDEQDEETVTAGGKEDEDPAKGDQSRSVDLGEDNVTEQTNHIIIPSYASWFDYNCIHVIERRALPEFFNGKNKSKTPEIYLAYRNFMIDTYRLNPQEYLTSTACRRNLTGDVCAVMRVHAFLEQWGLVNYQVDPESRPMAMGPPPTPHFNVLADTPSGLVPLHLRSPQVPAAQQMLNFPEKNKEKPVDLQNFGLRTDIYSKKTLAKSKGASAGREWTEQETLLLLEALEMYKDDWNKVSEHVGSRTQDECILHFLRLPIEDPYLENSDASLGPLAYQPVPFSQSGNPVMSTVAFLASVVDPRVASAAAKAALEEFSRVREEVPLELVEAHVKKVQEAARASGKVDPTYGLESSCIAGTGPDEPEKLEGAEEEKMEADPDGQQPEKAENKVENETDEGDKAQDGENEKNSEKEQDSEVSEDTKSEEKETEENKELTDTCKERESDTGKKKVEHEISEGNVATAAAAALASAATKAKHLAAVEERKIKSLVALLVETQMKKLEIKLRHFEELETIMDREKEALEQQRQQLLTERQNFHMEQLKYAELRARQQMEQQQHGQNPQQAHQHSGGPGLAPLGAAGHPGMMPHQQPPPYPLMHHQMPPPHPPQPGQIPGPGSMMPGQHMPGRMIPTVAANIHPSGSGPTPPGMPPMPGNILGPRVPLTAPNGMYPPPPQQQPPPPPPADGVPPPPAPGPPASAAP
UniProt P51532: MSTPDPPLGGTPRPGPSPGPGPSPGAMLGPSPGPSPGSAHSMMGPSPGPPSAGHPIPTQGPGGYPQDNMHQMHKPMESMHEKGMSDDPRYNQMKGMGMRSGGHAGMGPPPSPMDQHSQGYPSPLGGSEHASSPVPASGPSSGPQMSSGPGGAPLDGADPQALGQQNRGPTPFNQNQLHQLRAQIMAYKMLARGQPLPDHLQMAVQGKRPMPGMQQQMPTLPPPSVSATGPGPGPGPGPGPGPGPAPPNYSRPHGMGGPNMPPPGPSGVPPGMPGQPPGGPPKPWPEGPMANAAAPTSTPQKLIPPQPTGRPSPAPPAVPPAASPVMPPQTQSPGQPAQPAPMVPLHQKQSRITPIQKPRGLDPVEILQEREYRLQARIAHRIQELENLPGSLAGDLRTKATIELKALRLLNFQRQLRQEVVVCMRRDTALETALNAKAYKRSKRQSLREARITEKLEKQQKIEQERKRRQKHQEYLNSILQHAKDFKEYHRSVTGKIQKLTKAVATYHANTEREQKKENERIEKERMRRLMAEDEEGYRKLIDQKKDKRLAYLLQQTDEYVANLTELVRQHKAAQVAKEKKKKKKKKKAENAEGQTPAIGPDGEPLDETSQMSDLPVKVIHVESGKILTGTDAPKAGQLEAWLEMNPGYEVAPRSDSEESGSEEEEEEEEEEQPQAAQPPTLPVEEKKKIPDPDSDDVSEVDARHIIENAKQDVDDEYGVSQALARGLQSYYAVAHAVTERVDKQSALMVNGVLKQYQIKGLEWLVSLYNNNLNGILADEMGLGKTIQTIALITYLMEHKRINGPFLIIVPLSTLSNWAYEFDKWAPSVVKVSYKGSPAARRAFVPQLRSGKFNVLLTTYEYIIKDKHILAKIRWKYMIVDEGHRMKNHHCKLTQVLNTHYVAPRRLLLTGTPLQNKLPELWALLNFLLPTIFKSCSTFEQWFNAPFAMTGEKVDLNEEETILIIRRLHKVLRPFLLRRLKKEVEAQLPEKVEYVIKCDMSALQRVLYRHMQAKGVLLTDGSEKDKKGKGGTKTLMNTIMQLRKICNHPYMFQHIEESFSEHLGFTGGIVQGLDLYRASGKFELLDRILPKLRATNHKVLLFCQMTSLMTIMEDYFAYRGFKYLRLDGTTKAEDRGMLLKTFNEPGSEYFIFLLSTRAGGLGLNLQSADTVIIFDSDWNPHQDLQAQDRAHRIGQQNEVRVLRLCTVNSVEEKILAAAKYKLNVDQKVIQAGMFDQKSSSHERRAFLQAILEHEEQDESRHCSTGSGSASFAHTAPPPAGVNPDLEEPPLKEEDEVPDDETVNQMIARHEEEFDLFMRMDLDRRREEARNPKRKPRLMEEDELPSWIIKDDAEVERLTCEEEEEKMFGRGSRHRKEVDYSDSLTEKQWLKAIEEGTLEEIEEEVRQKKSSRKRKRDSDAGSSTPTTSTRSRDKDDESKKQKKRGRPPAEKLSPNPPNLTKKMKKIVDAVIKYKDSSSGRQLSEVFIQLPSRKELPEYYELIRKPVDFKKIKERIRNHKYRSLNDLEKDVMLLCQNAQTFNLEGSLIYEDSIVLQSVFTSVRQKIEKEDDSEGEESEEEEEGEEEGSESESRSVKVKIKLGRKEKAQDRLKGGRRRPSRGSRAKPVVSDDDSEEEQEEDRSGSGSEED

Assays:
[1] = molecular target: GST‐tagged FUS‐NTD (human) (UniProt P35637); assay: pull-down; FUS-NTD-GST on Glutathione-Sepharose 4B with Raji cell extract; stringency washes, four times with extraction buffer containing 100, 150, 250, 500 or 1,000 mM NaCl, then one wash with 100 mM NaCl; immunoblot of what remained on the bait; only the target purified
[2] = molecular target: GST‐tagged FUS‐NTD (human) (UniProt P35637); assay: pull-down; GST-tagged FET-NTD or FUS-NTD deletion mutant baits on Glutathione-Sepharose 4B incubated with Raji cell extract 2-4 h at 4°C; washed four times in 20 mM Tris pH 7.5, 0.5% NP-40, 100 mM NaCl, 2 mM MgCl2; immunoblot; only the target purified
[3] = molecular target: GST‐tagged EWSR1‐NTD (human) (UniProt Q01844); assay: as above
[4] = molecular target: GST‐tagged FUS‐NTD (human) (UniProt P35637); assay: pull-down; FUS-NTD-GST on Glutathione-Sepharose 4B with Raji cell extract treated with 20 U/ml RNase ONE or 10 U/ml RQ1 DNase in modified extraction buffer (5 mM MgCl2, 5 mM MnCl2, 10 mM CaCl2); immunoblot; only the target purified

Substance	binding [1]	binding [2]	binding [3]	binding [4]
EWSR1 (from UniProt Q01844 1-656)	binds	–	–	–
BAF60A (from UniProt Q96GM5 1-515)	binds	binds	binds	–
BAF47 (from UniProt Q12824 1-385)	binds	–	–	–
SS18 (from UniProt Q15532 1-418)	binds	–	–	–
BAF170 (from UniProt Q8TAQ2 1-1214)	binds	–	–	–
BAF155 (from UniProt Q92922 1-1105)	binds	–	–	–
BRG1 (from UniProt P51532 1-1647)	–	binds	binds	binds

These are yes or no findings as the source states them, for the method shown. Binding seen in cells or lysates may run through a third protein. Binding calls can cover weak binding; strength is not graded here.
